Measurements taken from PMC6072106.
The exact form of at least one protein or probe is not confirmed. A weaker result is weaker than the reference pair of the same experiment. At least one verdict was read from the data and is not stated in words by the source. Where a protein sequence is shown, tags need not be part of it.

Molecular target: T1, Fis (UniProt Q88DK4)
T1 sequence (looked up, limits assumed): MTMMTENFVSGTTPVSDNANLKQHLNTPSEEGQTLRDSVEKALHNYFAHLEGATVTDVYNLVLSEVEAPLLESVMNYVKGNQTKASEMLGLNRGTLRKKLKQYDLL
Experiment: EMSA with LF2 competition
Details: 0.46 uM Fis, competed by LF2 less efficiently than Fis-nuo2-mut DNA, comparison with wild type not stated for EMSA; EMSA: 24 mM Tris/HCl pH 7.5, 50 mM KCl, 10 mM MgCl2, 1 mM CaCl2, 0.1 mM EDTA, 5% glycerol, 0.05 ug/ul BSA, 0.05 ug/ul salmon sperm DNA, 20 ul, 20 min room temperature; recombinant protein; protein details: His-tag; label: 32P (5'); probe letters rebuilt from the primers and the genome

GCGCGTAATGCCCGAATTTCAAGGCTCTCAGCCAGTTACGAACGTTTTTTGTACTTAATCCTACGAATAAGGTTGCGAGTCGAATTTTACTTGCACCAGGTTTACCCATAAAATCAGCGCGATTGATCCGGCTGCGACATTTGGTCACTG (double strand) [Fis-nuo1-mut-Fis-nuo2]
binding result: binds more weakly
